Results published in article doi:10.1101/2021.09.28.462098.
These are yes or no findings as the source states them, for the method shown. Some binding calls cover weakened binding; strength is not graded here.

Amino acid sequences for entries named in this document (tags omitted).
UniProt Q07335: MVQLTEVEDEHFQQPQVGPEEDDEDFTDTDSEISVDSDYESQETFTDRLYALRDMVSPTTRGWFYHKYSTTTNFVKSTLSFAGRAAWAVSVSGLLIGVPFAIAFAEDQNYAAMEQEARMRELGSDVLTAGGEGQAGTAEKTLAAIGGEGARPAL

Molecular target: Tom22 with a hexahistidine tag at the C-terminus (Neurospora crassa) (UniProt Q07335)
Assay: co-purification

B1: Tom6 (protein, UniProt Q1K6I2 1-60)
chain: MPSAKYIERPGGSRKSKGFIRSTYDSLTSSENASVVRSIAFFGAAVAFLSSSWGEMLVVQ
For B1, the binding was “binds”.
